Experimental data from the supplement of paper PMC10849652.
The list shows a part of the results.

Amino acid sequences for entries named in this document (tags omitted). A change or cut given only in a name is not applied to a line headed by its entry.
UniProt P20333, whole entry, looked up: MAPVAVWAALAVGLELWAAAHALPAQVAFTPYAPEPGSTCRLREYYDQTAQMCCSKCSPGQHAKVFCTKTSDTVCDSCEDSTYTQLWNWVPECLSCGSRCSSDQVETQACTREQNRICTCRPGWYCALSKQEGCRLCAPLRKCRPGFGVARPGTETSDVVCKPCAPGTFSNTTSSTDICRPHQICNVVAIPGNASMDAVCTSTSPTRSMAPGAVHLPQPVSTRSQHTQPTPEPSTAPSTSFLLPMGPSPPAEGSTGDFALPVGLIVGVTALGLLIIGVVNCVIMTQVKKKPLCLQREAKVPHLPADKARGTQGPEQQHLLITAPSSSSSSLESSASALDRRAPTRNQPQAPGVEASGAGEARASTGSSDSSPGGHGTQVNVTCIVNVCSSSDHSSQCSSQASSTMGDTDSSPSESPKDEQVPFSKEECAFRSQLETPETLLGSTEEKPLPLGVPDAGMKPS
UniProt Q9Y5R8, whole entry, looked up: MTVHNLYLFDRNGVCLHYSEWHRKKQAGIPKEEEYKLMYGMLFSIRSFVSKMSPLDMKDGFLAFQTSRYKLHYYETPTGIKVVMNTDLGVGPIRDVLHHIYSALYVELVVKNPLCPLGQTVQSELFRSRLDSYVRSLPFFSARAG
UniProt Q13049: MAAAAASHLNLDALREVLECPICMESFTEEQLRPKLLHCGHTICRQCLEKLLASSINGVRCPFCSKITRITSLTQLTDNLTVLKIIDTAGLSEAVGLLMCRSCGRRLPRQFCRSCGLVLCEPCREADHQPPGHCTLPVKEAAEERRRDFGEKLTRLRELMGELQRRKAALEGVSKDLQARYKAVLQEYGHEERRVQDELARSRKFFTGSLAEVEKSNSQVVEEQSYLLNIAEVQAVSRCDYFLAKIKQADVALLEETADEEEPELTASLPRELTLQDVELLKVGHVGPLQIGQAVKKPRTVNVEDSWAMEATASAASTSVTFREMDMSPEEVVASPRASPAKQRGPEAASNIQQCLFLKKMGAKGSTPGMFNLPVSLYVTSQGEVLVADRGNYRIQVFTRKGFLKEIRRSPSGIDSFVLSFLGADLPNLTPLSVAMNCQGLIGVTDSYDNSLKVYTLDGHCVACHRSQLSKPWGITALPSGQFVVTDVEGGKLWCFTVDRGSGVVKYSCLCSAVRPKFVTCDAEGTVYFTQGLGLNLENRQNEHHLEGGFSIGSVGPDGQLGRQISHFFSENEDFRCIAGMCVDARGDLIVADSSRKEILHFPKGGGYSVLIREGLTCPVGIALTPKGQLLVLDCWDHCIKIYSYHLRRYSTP
UniProt Q8WWH5: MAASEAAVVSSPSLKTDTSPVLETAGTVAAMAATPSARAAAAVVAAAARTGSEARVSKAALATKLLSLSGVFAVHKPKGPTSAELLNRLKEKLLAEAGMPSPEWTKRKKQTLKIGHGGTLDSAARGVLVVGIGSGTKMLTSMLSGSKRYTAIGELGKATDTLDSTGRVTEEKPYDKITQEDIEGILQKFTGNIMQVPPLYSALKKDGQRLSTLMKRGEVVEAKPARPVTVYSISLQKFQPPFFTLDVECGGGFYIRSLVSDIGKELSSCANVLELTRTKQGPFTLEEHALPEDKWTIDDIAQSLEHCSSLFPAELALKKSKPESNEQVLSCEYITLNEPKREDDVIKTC
UniProt O75157: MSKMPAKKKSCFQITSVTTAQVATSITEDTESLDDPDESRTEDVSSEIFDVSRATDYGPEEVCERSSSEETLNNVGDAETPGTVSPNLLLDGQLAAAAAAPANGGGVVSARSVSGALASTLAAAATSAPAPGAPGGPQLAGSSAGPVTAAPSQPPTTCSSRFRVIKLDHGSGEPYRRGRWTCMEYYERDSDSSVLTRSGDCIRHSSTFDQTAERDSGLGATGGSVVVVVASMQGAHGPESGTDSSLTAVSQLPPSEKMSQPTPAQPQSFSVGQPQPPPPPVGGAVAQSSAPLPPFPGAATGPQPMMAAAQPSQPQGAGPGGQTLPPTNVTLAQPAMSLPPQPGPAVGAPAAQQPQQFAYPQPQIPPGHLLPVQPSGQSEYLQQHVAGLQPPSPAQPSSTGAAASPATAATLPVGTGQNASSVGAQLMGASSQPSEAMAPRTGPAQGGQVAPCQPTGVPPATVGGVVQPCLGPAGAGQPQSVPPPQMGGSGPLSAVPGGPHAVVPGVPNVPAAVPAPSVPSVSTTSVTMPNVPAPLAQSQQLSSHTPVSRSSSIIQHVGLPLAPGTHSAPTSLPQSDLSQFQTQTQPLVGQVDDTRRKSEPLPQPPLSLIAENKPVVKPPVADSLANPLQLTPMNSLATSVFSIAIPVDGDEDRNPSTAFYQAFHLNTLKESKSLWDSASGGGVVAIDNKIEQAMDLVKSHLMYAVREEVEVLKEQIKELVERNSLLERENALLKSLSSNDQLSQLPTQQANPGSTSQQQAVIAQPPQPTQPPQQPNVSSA
UniProt Q9NXH9: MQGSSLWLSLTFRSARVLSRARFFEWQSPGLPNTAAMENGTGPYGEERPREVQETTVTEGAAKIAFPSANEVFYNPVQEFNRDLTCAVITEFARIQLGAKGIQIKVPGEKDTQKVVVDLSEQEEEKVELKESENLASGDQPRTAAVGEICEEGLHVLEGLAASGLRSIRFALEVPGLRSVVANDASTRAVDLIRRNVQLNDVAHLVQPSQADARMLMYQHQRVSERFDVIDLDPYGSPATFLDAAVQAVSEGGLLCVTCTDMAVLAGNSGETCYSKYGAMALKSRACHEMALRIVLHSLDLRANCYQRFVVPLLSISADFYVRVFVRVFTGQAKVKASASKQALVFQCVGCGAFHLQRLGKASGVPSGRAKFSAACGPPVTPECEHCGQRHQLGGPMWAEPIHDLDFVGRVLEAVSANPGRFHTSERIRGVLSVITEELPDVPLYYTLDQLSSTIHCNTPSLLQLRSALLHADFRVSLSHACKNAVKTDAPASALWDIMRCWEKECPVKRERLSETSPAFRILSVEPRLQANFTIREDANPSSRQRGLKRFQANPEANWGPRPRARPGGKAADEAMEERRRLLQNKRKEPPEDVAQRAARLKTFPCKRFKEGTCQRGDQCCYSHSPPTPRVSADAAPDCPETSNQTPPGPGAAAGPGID
UniProt P09493, whole entry, looked up: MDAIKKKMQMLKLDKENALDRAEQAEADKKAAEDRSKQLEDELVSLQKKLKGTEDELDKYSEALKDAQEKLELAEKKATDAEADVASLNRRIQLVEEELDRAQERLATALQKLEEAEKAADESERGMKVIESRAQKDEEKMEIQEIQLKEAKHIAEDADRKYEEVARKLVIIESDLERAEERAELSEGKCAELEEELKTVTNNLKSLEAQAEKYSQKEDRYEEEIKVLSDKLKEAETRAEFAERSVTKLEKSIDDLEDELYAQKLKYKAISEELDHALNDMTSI
UniProt P29144: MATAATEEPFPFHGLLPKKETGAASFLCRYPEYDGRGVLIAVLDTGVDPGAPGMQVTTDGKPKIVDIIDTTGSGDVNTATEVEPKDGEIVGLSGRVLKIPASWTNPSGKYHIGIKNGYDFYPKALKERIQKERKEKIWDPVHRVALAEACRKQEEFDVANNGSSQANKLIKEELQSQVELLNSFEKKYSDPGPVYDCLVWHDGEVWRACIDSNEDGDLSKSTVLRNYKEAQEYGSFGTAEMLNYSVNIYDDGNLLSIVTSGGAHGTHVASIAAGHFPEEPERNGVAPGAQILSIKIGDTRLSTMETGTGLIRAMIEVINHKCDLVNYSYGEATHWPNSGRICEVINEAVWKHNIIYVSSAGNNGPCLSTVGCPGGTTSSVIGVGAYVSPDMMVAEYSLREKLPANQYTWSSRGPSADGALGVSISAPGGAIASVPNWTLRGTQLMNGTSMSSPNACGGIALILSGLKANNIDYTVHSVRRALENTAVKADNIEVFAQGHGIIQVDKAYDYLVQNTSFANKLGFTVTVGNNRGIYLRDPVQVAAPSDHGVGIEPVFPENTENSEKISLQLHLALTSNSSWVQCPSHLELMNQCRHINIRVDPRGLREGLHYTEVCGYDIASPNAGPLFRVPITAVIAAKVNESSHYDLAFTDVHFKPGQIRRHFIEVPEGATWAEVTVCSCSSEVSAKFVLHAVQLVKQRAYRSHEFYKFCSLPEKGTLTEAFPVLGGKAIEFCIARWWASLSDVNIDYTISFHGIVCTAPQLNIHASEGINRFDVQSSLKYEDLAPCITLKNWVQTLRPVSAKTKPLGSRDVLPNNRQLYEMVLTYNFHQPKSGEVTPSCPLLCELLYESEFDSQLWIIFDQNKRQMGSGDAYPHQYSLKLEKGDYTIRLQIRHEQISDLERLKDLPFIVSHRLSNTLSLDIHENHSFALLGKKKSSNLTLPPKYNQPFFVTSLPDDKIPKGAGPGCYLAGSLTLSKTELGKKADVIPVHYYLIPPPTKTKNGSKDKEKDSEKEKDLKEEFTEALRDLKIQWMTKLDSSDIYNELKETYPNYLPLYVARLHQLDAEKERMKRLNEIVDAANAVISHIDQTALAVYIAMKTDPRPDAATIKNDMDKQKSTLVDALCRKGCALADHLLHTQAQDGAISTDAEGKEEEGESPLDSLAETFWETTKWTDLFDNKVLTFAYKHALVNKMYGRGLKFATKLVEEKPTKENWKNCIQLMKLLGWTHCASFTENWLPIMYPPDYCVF
UniProt P51580: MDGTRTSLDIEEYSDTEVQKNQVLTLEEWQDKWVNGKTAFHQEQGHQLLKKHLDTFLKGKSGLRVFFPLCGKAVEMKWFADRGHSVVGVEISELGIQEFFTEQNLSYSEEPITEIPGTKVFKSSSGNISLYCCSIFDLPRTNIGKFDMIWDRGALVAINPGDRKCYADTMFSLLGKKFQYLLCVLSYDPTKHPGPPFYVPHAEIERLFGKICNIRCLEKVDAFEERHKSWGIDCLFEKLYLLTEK
UniProt Q9C0C2: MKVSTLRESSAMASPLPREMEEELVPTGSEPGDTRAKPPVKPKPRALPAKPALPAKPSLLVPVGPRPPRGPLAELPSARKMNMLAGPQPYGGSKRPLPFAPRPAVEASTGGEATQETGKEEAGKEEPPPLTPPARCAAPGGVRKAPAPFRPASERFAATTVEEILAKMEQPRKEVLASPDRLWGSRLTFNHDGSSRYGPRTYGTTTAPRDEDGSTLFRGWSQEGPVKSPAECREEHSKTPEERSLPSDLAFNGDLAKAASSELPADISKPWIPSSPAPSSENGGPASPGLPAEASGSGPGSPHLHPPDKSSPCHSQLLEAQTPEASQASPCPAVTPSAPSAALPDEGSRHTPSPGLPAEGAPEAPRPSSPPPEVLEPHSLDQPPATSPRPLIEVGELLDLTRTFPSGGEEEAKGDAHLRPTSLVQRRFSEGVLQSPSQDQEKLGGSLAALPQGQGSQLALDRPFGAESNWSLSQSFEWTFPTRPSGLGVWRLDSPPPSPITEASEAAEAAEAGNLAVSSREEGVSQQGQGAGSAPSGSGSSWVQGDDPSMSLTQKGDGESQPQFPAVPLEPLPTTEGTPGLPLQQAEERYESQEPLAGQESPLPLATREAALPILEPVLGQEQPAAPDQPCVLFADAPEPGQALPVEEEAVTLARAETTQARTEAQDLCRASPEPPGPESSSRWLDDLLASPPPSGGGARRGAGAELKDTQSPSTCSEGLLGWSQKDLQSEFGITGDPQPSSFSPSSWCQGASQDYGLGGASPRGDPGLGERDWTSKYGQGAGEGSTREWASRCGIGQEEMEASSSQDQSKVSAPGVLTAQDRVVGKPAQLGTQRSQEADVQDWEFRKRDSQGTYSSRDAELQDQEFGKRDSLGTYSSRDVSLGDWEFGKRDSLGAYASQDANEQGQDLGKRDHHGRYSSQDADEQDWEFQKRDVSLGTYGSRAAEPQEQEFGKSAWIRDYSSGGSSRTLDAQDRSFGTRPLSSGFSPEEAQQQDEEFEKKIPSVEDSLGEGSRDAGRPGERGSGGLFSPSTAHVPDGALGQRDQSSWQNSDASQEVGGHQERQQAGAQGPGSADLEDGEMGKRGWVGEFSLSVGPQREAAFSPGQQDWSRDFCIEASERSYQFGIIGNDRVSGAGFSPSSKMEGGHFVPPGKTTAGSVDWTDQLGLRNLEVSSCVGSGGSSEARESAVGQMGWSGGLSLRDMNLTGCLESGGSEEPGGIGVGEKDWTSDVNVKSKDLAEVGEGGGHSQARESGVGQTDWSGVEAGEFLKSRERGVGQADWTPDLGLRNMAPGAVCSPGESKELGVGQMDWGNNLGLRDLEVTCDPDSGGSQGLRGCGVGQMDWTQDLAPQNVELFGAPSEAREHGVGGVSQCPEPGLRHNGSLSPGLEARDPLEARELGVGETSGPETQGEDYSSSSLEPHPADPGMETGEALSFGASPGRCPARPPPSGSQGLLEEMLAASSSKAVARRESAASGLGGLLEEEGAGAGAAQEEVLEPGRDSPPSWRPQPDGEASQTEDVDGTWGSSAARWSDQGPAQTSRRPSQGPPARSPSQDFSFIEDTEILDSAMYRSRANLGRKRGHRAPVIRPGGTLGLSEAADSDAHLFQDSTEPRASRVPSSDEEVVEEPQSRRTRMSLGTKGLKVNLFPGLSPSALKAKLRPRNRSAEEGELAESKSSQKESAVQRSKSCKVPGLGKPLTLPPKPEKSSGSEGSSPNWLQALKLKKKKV

Experiments:
Experiment in all cases: log2 fold change, soluble protein after heating vs DMSO (PISA); higher = thermal stabilisation; K562 cells, 10 uM, 30 min; active = over 0.2 and 3.5 SD of the protein, either way, in both replicates (recomputed)
[1] = compound: CN1CCN(CCOc2cc(OC3CCOCC3)c3c(Nc4c(Cl)ccc5c4OCO5)ncnc3c2)CC1 [saracatinib]
In short: (§1)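 K562 cells at 2×10^6 cells/mL were treated for 30 min with 10 μM compound, and aliquots were heated for 3 min over 48°C-58°C before pooling. Extraction used PBS with 0.5% NP-40 at 4°C, and soluble protein was the supernatant after 21,000xg for 90 min, measured by TMTpro 16plex LC-MS/MS with channel sums equalised. Thermal stability values, relative to control samples and from duplicates, are log2 fold changes.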

[2] = compound: CN1CCN(c2nc(C3=C(c4c[nH]c5ccccc45)C(=O)NC3=O)c3ccccc3n2)CC1 [sotrastaurin]
In short: as §1

[3] = compound: CN1CC[C@H](c2c(O)cc(O)c3c(=O)cc(-c4ccccc4Cl)oc23)[C@H](O)C1 [alvocidib]
In short: as §1

[4] = compound: CN1CCc2c(c3ccccc3n2Cc2ccc(C(=O)NO)cc2)C1 [Tubastatin A]
In short: as §1

[5] = compound: CNC(=O)C1=CC=CC=C1NC2=NC(=NC=C2Cl)NC3=C(C=C(C=C3)N4CCOCC4)OC
In short: as §1

[6] = compound: CNC(=O)c1ccc(Nc2ncc(C(F)(F)F)c(NCc3nccnc3N(C)S(C)(=O)=O)n2)cc1 [defactinib]
In short: as §1

[7] = compound: CNCc1ccc(-c2[nH]c3cc(F)cc4c3c2CCNC4=O)cc1 [rucaparib]
In short: as §1

[8] = compound: CNc1nc(-c2ccc3c(N)n[nH]c3c2)cc(N2C[C@@H](C(=O)NC3CCCCC3)CC[C@H]2C)n1
In short: as §1

[9] = compound: COC(=O)N[C@@H](C)CNc1nccc(-c2cn(C(C)C)nc2-c2cc(Cl)cc(NS(C)(=O)=O)c2F)n1 [encorafenib]
In short: as §1

[10] = compound: COC(=O)[C@H](CCSC)NC(=O)C1=C(C=C(C=C1)NC[C@H](CS)N)C2=CC=CC=C2
In short: as §1

[11] = compound: COC1=CC=C(C=C1)CN2C=CC3=C2C=C(C=C3)C(=O)NO
In short: as §1

[12] = compound: CON(C)C(=O)N1N=C(c2cc(F)ccc2F)S[C@@]1(CCCN)c1ccccc1 [filanesib]
In short: as §1

[13] = compound: CO[C@H]1C[C@@H]2CC[C@@H](C)[C@@](O)(O2)C(=O)C(=O)N2CCCC[C@H]2C(=O)O[C@H]([C@H](C)C[C@@H]2CC[C@H](n3cnnn3)[C@H](OC)C2)CC(=O)[C@H](C)/C=C(\C)[C@@H](O)[C@@H](OC)C(=O)[C@H](C)C[C@H](C)/C=C/C=C/C=C/1C [zotarolimus]
In short: as §1

[14] = compound: COc1cc(C(=O)O)ccc1NC(=O)[C@@H]1N[C@@H](CC(C)(C)C)[C@](C#N)(c2ccc(Cl)cc2F)[C@H]1c1cccc(Cl)c1F [idasanutlin]
In short: as §1

[15] = compound: COc1cc(Nc2ncc3c(n2)-c2ccc(Cl)cc2C(c2c(F)cccc2OC)=NC3)ccc1C(=O)O [alisertib]
In short: as §1

[16] = compound: COc1cc2nc(-c3cc(F)ccc3O)nc(N[C@@H]3CNC[C@H]3C(C)(C)O)c2cc1OC
In short: as §1

[17] = compound: COc1cc2ncnc(Nc3ccc(F)c(Cl)c3)c2cc1OCCCN1CCOCC1 [gefitinib]
In short: as §1

[18] = compound: COc1cccc2cc(-c3nc([C@H]4CC[C@H](C(=O)O)CC4)n4ncnc(N)c34)[nH]c12
In short: as §1

[19] = compound: CS(=O)(=O)CCNCc1ccc(-c2ccc3ncnc(Nc4ccc(OCc5cccc(F)c5)c(Cl)c4)c3c2)o1 [lapatinib]
In short: as §1

[20] = compound: CS(=O)(=O)N1CCN(Cc2cc3nc(-c4cccc5[nH]ncc45)nc(N4CCOCC4)c3s2)CC1 [pictilisib]
In short: as §1

Measured: log2 fold change

TRAPPC12 (UniProt Q8WVT3)
inactive: [1] -0.095 | [2] -0.073 | [3] -0.105 | [4] 0.034 | [5] -0.044 | [6] -0.039 | [7] 0.033 | [8] -0.003 | [9] -0.051 | [10] -0.009 | [11] 0.032 | [12] 0.05 | [13] 0.056 | [14] 0.031 | [15] 0.058 | [16] 0.004 | [17] 0.045 | [18] -0.072 | [19] 0.027 | [20] -0.002

TNFRSF1B (UniProt P20333)
inactive: [1] 0.235 | [2] 0.019 | [3] 0.018 | [4] 0.047 | [5] 0.022 | [6] 0.082 | [7] 0.068 | [8] -0.072 | [9] 0.036 | [10] 0.174 | [11] -0.062 | [12] 0.009 | [13] -0.045 | [14] -0.009 | [15] 0 | [16] -0.001 | [17] -0.005 | [18] -0.011 | [19] 0.054 | [20] 0.079

TRMT1L (UniProt Q7Z2T5)
inactive: [1] -0.113 | [2] -0.032 | [3] 0.272 | [4] 0.095 | [5] 0.02 | [6] 0.321 | [7] 0.276 | [8] 0.143 | [9] 0.163 | [10] -0.134 | [11] -0.054 | [12] 0.377 | [13] 0.064 | [14] 0.204 | [15] -0.098 | [16] 0.004 | [17] -0.097 | [18] -0.174 | [19] 0.142 | [20] -0.138

TPM4 isoform 2 (UniProt P67936)
inactive: [1] -0.023 | [2] 0.033 | [3] 0.058 | [4] -0.015 | [5] 0.014 | [6] 0 | [7] -0.07 | [8] 0.049 | [9] -0.081 | [10] -0.061 | [11] -0.036 | [12] -0.125 | [13] 0.006 | [14] -0.132 | [15] -0.005 | [16] -0.237 | [17] 0.058 | [18] 0.021 | [19] 0.211 | [20] 0.035

TOR3A (UniProt Q9H497)
inactive: [1] -0.003 | [2] -0.007 | [3] -0.009 | [4] 0.009 | [5] -0.103 | [6] -0.007 | [7] 0.048 | [8] 0.005 | [9] -0.022 | [10] -0.013 | [11] -0.008 | [12] 0.016 | [13] -0.017 | [14] 0.024 | [15] -0.066 | [16] -0.093 | [17] -0.03 | [18] 0.032 | [19] -0.027 | [20] -0.042

TRAPPC1 (UniProt Q9Y5R8)
inactive: [1] -0.016 | [2] 0.039 | [3] -0.059 | [4] 0.023 | [5] -0.047 | [6] -0.059 | [7] -0.023 | [8] 0.049 | [9] 0 | [10] 0.042 | [11] 0.154 | [12] 0.036 | [13] 0.136 | [14] -0.117 | [15] 0.04 | [16] 0.025 | [17] 0.022 | [18] 0.127 | [19] 0.021 | [20] -0.003

2 consecutive records already listed, quoted:
TPM4 isoform 2 (UniProt P67936)
inactive: [1] -0.023 | [2] 0.033 | [3] 0.058 | [4] -0.015 | [5] 0.014 | [6] 0 | [7] -0.07 | [8] 0.049 | [9] -0.081 | [10] -0.061 | [11] -0.036 | [12] -0.125 | [13] 0.006 | [14] -0.132 | [15] -0.005 | [16] -0.237 | [17] 0.058 | [18] 0.021 | [19] 0.211 | [20] 0.035

TOR3A (UniProt Q9H497)
inactive: [1] -0.003 | [2] -0.007 | [3] -0.009 | [4] 0.009 | [5] -0.103 | [6] -0.007 | [7] 0.048 | [8] 0.005 | [9] -0.022 | [10] -0.013 | [11] -0.008 | [12] 0.016 | [13] -0.017 | [14] 0.024 | [15] -0.066 | [16] -0.093 | [17] -0.03 | [18] 0.032 | [19] -0.027 | [20] -0.042

Remaining list, next part:

TRIM32 (UniProt Q13049)
inactive: [1] 0.091 | [2] 0.142 | [3] -0.005 | [4] -0.086 | [5] 0.038 | [6] 0.039 | [7] 0.014 | [8] -0.056 | [9] -0.044 | [10] 0.09 | [11] -0.097 | [12] 0.048 | [13] -0.114 | [14] 0.044 | [15] 0.287 | [16] 0.025 | [17] 0.12 | [18] 0.148 | [19] -0.019 | [20] 0.068

TRUB1 (UniProt Q8WWH5)
inactive: [1] -0.078 | [2] -0.018 | [3] -0.077 | [4] 0.043 | [5] 0.031 | [6] -0.047 | [7] -0.013 | [8] -0.046 | [9] 0.016 | [10] -0.063 | [11] 0.087 | [12] 0.09 | [13] 0.033 | [14] -0.005 | [15] -0.066 | [16] -0.022 | [17] 0.02 | [18] 0.071 | [19] 0.045 | [20] -0.024

TSC22D2 (UniProt O75157)
inactive: [1] 0.03 | [2] -0.001 | [3] -0.006 | [4] -0.081 | [5] -0.022 | [6] -0.054 | [7] -0.016 | [8] -0.072 | [9] -0.092 | [10] 0.101 | [11] -0.08 | [12] 0.061 | [13] -0.02 | [14] 0.049 | [15] -0.194 | [16] 0.075 | [17] 0.06 | [18] -0.054 | [19] -0.071 | [20] 0.051

TRMT1 (UniProt Q9NXH9)
inactive: [1] 0.031 | [2] 0.015 | [3] 0.016 | [4] -0.036 | [5] -0.033 | [6] 0.004 | [7] -0.038 | [8] -0.021 | [9] -0.03 | [10] 0.007 | [11] -0.038 | [12] -0.035 | [13] -0.012 | [14] -0.02 | [15] -0.082 | [16] -0.008 | [17] -0.005 | [18] 0.026 | [19] 0 | [20] -0.003

TPM1 isoform 4 (UniProt P09493)
inactive: [1] -0.017 | [2] -0.002 | [3] -0.016 | [4] 0.005 | [5] -0.015 | [6] -0.019 | [7] -0.066 | [8] -0.039 | [9] -0.041 | [10] 0.033 | [11] -0.03 | [12] -0.035 | [13] -0.007 | [14] 0.033 | [15] -0.097 | [16] 0.023 | [17] 0.036 | [18] -0.061 | [19] 0 | [20] -0.003

TOX4 (UniProt O94842)
inactive: [1] 0.002 | [2] -0.004 | [3] 0.342 | [4] -0.043 | [5] -0.029 | [6] 0.28 | [7] 0.21 | [8] 0.009 | [9] -0.005 | [10] 0.089 | [11] -0.087 | [12] 0.308 | [13] 0 | [14] 0.183 | [15] 0.009 | [16] 0.092 | [17] -0.01 | [18] -0.048 | [19] 0.047 | [20] -0.128

TPP2 (UniProt P29144)
inactive: [1] -0.218 | [2] -0.181 | [3] 0.126 | [4] 0.108 | [5] -0.094 | [6] 0.219 | [7] 0.175 | [8] 0.11 | [9] 0.182 | [10] 0 | [11] -0.107 | [12] 0.256 | [13] 0.046 | [14] 0.088 | [15] -0.214 | [16] -0.004 | [17] -0.024 | [18] -0.349 | [19] 0.198 | [20] -0.169

TPMT (UniProt P51580)
inactive: [1] 0.018 | [2] 0.006 | [3] -0.001 | [4] -0.046 | [5] 0.027 | [6] -0.052 | [7] -0.043 | [8] -0.006 | [9] 0 | [10] -0.06 | [11] -0.088 | [12] -0.101 | [13] -0.016 | [14] -0.058 | [15] 0.035 | [16] 0.023 | [17] -0.001 | [18] 0.001 | [19] 0.057 | [20] 0.028

TNKS1BP1 (UniProt Q9C0C2)
inactive: [1] 0.022 | [2] 0.025 | [3] 0.021 | [4] 0.037 | [5] -0.049 | [6] -0.01 | [7] 0.04 | [8] -0.007 | [9] -0.074 | [10] 0.033 | [11] -0.001 | [12] 0.044 | [13] -0.036 | [14] 0.066 | [15] -0.009 | [16] 0.038 | [17] -0.003 | [18] 0.025 | [19] 0.01 | [20] 0.012

TPM4, A0A2R8Y5V9
inactive: [1] 0.024 | [2] 0.008 | [3] 0.018 | [4] -0.004 | [5] -0.035 | [6] -0.061 | [7] -0.056 | [8] -0.076 | [9] -0.048 | [10] 0.016 | [11] -0.02 | [12] -0.041 | [13] -0.037 | [14] -0.012 | [15] -0.044 | [16] 0.039 | [17] 0.04 | [18] 0.074 | [19] 0.067 | [20] 0.012
